Results reported in paper PMC13395416 (PLOS Pathogens, 2026).
No constants are given. Whether binding was seen depends on the method and setting.

Biological target: SteC_(210-429;K256H), inactive variant (Salmonella Typhimurium strain 14028s) (UniProt D0ZIB5)
Experiment: SEC-MALS; both purified

For “SteC_(210-429;K256H), inactive variant (from UniProt D0ZIB5 210-429) (domain or fragment)”, the binding was “no binding (tested: up to 8 mg/ml)”.
